What follows is the remainder of the data, with few or none of the hits.

The test can be described thus: qHTS profiling of Chloroquine Analogs as inhibitors of Plasmodium falciparum (3D7) proliferation. Conditions: at 28.7 µM (top of the series). The text has this:
Plasmodium falciparum is a virulent malarial parasite that kills 1-2 million people worldwide each year. Transmitted by mosquitoes, the sporozoite form of the parasite enters the blood stream to infect hepatocytes, where they become merozoites that infect red blood cells (erythrocytes). Within erythrocytes, merozoites begin a […] cycle of growth and division, after which the parasite is released to infect new red blood cells. Gametocytes, which form within erythrocytes as well, circulate in the bloodstream and are ingested by the mosquito, thereby completing the life cycle. To profile malarial isolates for differential chemical responses and to identify inhibitors of malarial growth, an assay that measures P. falciparum growth and replication within erythrocytes was employed. […] Because mature erythrocytes lack DNA, only Plasmodium-derived DNA is detected.
The SYBR Green viability assay was adapted from a method described previously (Plouffe et al., 2008). […] The following morning, fluorescence intensity at 485(14) nm excitation and 535(25) nm emission wavelengths was measured on an EnVision (Perkin Elmer) plate reader. Plate reads were normalized relative to the control inhibitor (0.29 uM artemisinin) and vehicle (DMSO) wells present on each plate and then corrected by an algorithm using vehicle-only control plates at the beginning and end of the compound plate stack.
A general note: In qHTS, concentration-response curves come from the screen itself.
On to `O=C(CCCCCCC(=O)Nc1ccccc1)NO`, for which the activity change, negative = inhibition was -101%.

Values taken from PubChem BioAssay AID743325 (National Center for Advancing Translational Sciences (NCATS), 2014).
